Measurements from US9944676 (dated 2018).

Assay: general procedure: peptide synthesis; H-Lys(Boc)-2-ClTrt resin; HATU/DIPEA
Details: lipidation step, based on penta peptide intermediate 4, chloride

Work on CGKRK-lipopeptide 1 yielded a step yield of 55%.
